# Measurements reported in PubChem BioAssay AID540276 (National Center for Advancing Translational Sciences (NCATS), 2011).
# Several values for one entry are separate records, joined by “and”; a condition that tells them apart may be missing. Equal values may be shown once. Hit rate of the full screen: of about 300,000 compounds, about 5,400 (1.8%) were called active. This list was built around the results that the source calls inconclusive (neither active nor inactive); the mix of calls is not that of the screen. Calls come from the whole dose curve; tested in HEK293 cells. Potencies of inconclusive entries are doubtful fits and often do not repeat.
# Assay: qHTS for inhibitors of binding or entry into cells for Marburg Virus
# Conditions: Marburg virus pseudotyped entry inhibition, cell reporter; activity change, negative = inhibition: at 37.8 µM (top of the series) unless noted
# % is set by controls: 0 for no effect and ±100 for the full control effect; potency is the fitted concentration of half-maximal effect.
SMILES,Potency,"activity change, negative = inhibition"
CCN1CCN(CCCNC(=O)c2cc3c(=O)n(C)c4ccccc4c3s2)CC1,"inconclusive: 11.2 µM [inhibitor, partial curve, poor fit]",–
Cc1[nH]c(=O)[nH]c(=O)c1S(=O)(=O)N1CCC(C(=O)N2CCN(c3cccc(C(F)(F)F)c3)CC2)CC1,–,inactive: 0.611% [at 46.1 µM]
CCOC(=O)c1cnc2ccc(C)cc2c1Sc1ccc(F)cc1,–,inactive: 5.42% [at 46.1 µM]
COc1ccc(C2=C(C=Nc3c(C)n(C)n(-c4ccccc4)c3=O)C(c3ccccc3C)c3ccccc3O2)cc1OC (stereo not given),"inconclusive: 1.12 µM [inhibitor, partial curve]",–
CCN(c1ccc2c(c1)OCO2)S(=O)(=O)c1cc(Br)cc2c1N(C(=O)C1CC1)CC2,"inconclusive: 11.6 µM [inhibitor, partial curve]",–
CC1C(c2ccccc2)N(C)C(c2ccccc2)CC1(O)c1ccc(F)cc1 (stereo not given),"inconclusive: 20 µM [inhibitor, single point]",–
Cc1nc2ccsc2c(=O)n1-c1cccc(Cl)c1,–,inactive: 16.1%
O=C(C1CCCC1)N1CCN(S(=O)(=O)c2cccc(Cl)c2Cl)CC1,"inconclusive: 35.5 µM [inhibitor, single point]",–
Cc1ccc(-c2ccccc2NC(=O)C2C3C=CC(C3)C2C(=O)O)o1 (stereo not given),"inconclusive: 25.1 µM [activator, partial curve, poor fit]",–
O=C(NNC(=O)c1ccccc1OCc1ccccc1)c1ccccc1F,–,inactive: -18.2% [at 46.1 µM]
CCOC(=O)c1sc(NC(=O)Nc2ccc(Cl)cc2)nc1C,"inconclusive: 0.259 µM [activator, full curve]",–
CN1/C(=C\C=N\O)C(C)(C)c2ccccc21,–,inactive: -1.66% [at 46.1 µM]
COc1cccc(C(=O)NC2CCSC2=O)c1 (stereo not given),"inconclusive: 5.8 µM [activator, partial curve]",–
Cn1c2c(c(=O)n(C)c1=O)C(C(F)(F)F)(C(F)(F)F)N=C(c1ccc(Cl)cc1)N2,active: 1 µM,–
CCc1ccc(OCC(=O)Nc2cc3oc4ccccc4c3cc2OC)cc1,–,inactive: -23.5% [at 46.1 µM]
CC(NC(=O)/C(C#N)=C/c1cn[nH]c1-c1ccccc1)c1ccccc1 (stereo not given),"inconclusive: 15.8 µM [inhibitor, single point]",–
CCN(CC)C(=O)CSC1=N/C(=C/c2ccco2)C(=O)N1c1ccc(OC)c(Cl)c1,"inconclusive: 15.8 µM [inhibitor, single point]",–
O=C(CCCCn1c(=O)c2ccccc2n(Cc2ccc(Cl)cc2)c1=O)NCc1ccco1,"inconclusive: 0.1 µM [activator, full curve, poor fit]",–
COCCN(Cc1cc2cc3c(cc2n2nnnc12)OCO3)C(=O)c1ccccc1F,inactive,–
CCC12CN3CCN(CC(C3)/C1=N\O)C2,"inconclusive: 10 µM [inhibitor, single point]",–
COc1ccc(C(=O)C2CCCN(Cc3ccc(C)s3)C2)c(OC)c1 (stereo not given),"inconclusive: 20 µM [inhibitor, partial curve, poor fit]",–
COc1ccccc1N1CCN(c2ncc(C(=O)N3CCN(c4cccc(Cl)c4)CC3)c3ccccc23)CC1,"inconclusive: 6.31 µM [inhibitor, partial curve, poor fit]",–

# Gathered by group: the compounds so far with a carbonyl joined to an NH by a bond outside any ring.
SMILES,Potency,"activity change, negative = inhibition"
CCN1CCN(CCCNC(=O)c2cc3c(=O)n(C)c4ccccc4c3s2)CC1,"inconclusive: 11.2 µM [inhibitor, partial curve, poor fit]",–
Cc1ccc(-c2ccccc2NC(=O)C2C3C=CC(C3)C2C(=O)O)o1 (stereo not given),"inconclusive: 25.1 µM [activator, partial curve, poor fit]",–
O=C(NNC(=O)c1ccccc1OCc1ccccc1)c1ccccc1F,–,inactive: -18.2% [at 46.1 µM]
CCOC(=O)c1sc(NC(=O)Nc2ccc(Cl)cc2)nc1C,"inconclusive: 0.259 µM [activator, full curve]",–
COc1cccc(C(=O)NC2CCSC2=O)c1 (stereo not given),"inconclusive: 5.8 µM [activator, partial curve]",–
CCc1ccc(OCC(=O)Nc2cc3oc4ccccc4c3cc2OC)cc1,–,inactive: -23.5% [at 46.1 µM]
CC(NC(=O)/C(C#N)=C/c1cn[nH]c1-c1ccccc1)c1ccccc1 (stereo not given),"inconclusive: 15.8 µM [inhibitor, single point]",–
O=C(CCCCn1c(=O)c2ccccc2n(Cc2ccc(Cl)cc2)c1=O)NCc1ccco1,"inconclusive: 0.1 µM [activator, full curve, poor fit]",–

# (listing goes on)

SMILES,Potency,"activity change, negative = inhibition"
COc1cccc(/C=C(/C(=O)OCC(=O)NC2CCCC(C)C2C)c2ccccc2)c1 (stereo not given),"inconclusive: 35.5 µM [inhibitor, single point]",–
Cc1cc(C)nc(N2C(=O)CC(Cc3ccc(Cl)cc3)C2=O)n1 (stereo not given),–,inactive: 8.8% [at 46.1 µM]
Cc1ccc(N(C(=O)c2snc(C(N)=O)c2N)C(C(=O)NC2CCCC2)c2ccco2)cc1 (stereo not given),"inconclusive: 1.78 µM [inhibitor, partial curve, poor fit]",–
CCOc1ccc(NC(=O)CCS(=O)(=O)c2ccc3c(c2)CCCN3C(C)=O)cc1,"inconclusive: 2.82 µM [activator, single point]",–
CC(C)CN(C(=O)COC(=O)C1=COCCO1)c1c(N)n(Cc2ccccc2)c(=O)[nH]c1=O,–,inactive: -2.65%
O=C(/C(=N/N=C/c1ccc(O)c(O)c1)c1ccccc1)c1ccccc1,"inconclusive: 3.55 µM [inhibitor, partial curve, poor fit]",–
CCc1ccc2nc(N(CCCN(C)C)C(=O)c3ccc(S(=O)(=O)N4CCCc5ccccc54)cc3)sc2c1,"inconclusive: 35.5 µM [inhibitor, single point]",–
O=C(Cn1ncc2c1-c1ccccc1OC2)N1CCN(c2ccccc2F)CC1,–,inactive: 3.47% [at 46.1 µM]
Cc1ccccc1C(=O)Nc1ccc(-c2nc3ccc(C(=O)c4ccccc4)cc3[nH]2)cc1,"inconclusive: 11.2 µM [inhibitor, single point]",–
NC(=O)CSc1ncc(-c2ccc([N+](=O)[O-])cc2)[nH]1,–,inactive: 7.16%
COc1ccc2oc(C(=O)NN3C(C)CCCC3C)c(C)c2c1 (stereo not given),–,inactive: -6.56% [at 46.1 µM]
CCc1ccc(-c2nc(CN3CCC(C(=O)N4CCN(c5ccccn5)CC4)CC3)c(C)o2)cc1,"inconclusive: 20.6 µM [inhibitor, single point]",–
Cc1cc2oc(C(=O)Nc3c(C(=O)Nc4ccccc4)oc4ccccc34)cc(=O)c2cc1C,–,inactive: 18.7% [at 46.1 µM]
COc1cc2c(c(OC)c1OC)CC(c1ccccc1)=C(c1ccccc1)CC2NC(=O)C(F)(F)F (stereo not given),–,inactive: 37.5% [at 14.2 µM]
O=C(NNc1nc2ccccc2s1)c1ccccc1F,"inconclusive: 2.24 µM [activator, full curve, poor fit]",–
Cc1ccc(OCC(O)CN2CCN(CC(O)COC(C)C)CC2)c(C(C)(C)C)c1 (stereo not given),"inconclusive: 29.1 µM [inhibitor, partial curve, poor fit]",–
CCCOc1ccc(N2C(=O)C3ON(c4ccccc4)C(CCC)C3C2=O)cc1 (stereo not given),"inconclusive: 15.8 µM [activator, partial curve, poor fit]",–
CCN(CC)S(=O)(=O)c1ccc2c(c1)nc(CCC(=O)Nc1ccc3c(c1)OCO3)n2C,"inconclusive: 0.562 µM [activator, partial curve, poor fit]",–
Cc1ccc(S(=O)(=O)N2CCN(C(=O)CSc3ncn[nH]3)CC2)c(C)c1,–,inactive: -15.6%
CC(=O)c1c(C)oc2ccc(NS(=O)(=O)c3ccc(F)cc3C)cc12,"inconclusive: 3.16 µM [inhibitor, partial curve, poor fit]",–
O=S(=O)(c1ccc(F)cc1)N1CCC2(CC1)OCCN2S(=O)(=O)c1cccs1,–,inactive: -16.1% [at 46.1 µM]
CC1=CS(=O)(=O)CC1Sc1nc2ccccc2[nH]1 (stereo not given),"inconclusive: 20 µM [activator, single point]",–

SMILES,Potency,"activity change, negative = inhibition"
CN1C(=O)C(CC(=O)Nc2ccccc2F)N(NC(=O)c2ccc(Br)cc2)C1=S (stereo not given),active: 12.6 µM,–
O=C(NCC1CCCN1S(=O)(=O)c1ccccc1)C(=O)NC1CC1 (stereo not given),–,inactive: 25.7%
CCN(CC)S(=O)(=O)c1ccc2oc(C(=O)NCC3COc4ccccc4O3)c(C)c2c1 (stereo not given),"inconclusive: 25.9 µM [inhibitor, single point]",–
CC1CCC(NC(=O)c2ccc3c(c2)N(Cc2ccccc2)C(=O)c2ccccc2S3=O)CC1 (stereo not given),"inconclusive: 17.8 µM [inhibitor, single point]",–
CCCC(=O)Nc1ccc(N2CCCCC2)cc1,"inconclusive: 3.55 µM [activator, single point]",–
COC(=O)C1CCC(=O)N1C(c1ccc(OC)cc1)c1cc(OC)c(OC)c(OC)c1 (stereo not given),"inconclusive: 1.26 µM [inhibitor, single point]",–
COc1cc(NS(=O)(=O)c2cc(C)ccc2OC)c(OC)cc1Cl,"inconclusive: 5.62 µM [inhibitor, partial curve, poor fit]",–
CCn1c2c(c3cc(Br)ccc31)CCC/C2=N\O,–,inactive: -7.69%
Cc1cc2ncn(CCCCOc3ccccc3)c2cc1C,"inconclusive: 25.9 µM [inhibitor, single point] and inconclusive: 14.1 µM [inhibitor, single point]",–
Cc1c(CC(=O)O)c(=O)oc2cc(OCc3ccc(Br)cc3)ccc12,"inconclusive: 7.94 µM [activator, partial curve, poor fit]",–
CCc1nnc(NC(=O)C(NC(=O)c2ccccc2Cl)C(C)C)s1 (stereo not given),–,inactive: -0.646% [at 46.1 µM]
CCCCN(CCCC)S(=O)(=O)c1ccc(C(=O)Nc2nnc(COC)o2)cc1,"inconclusive: 25.1 µM [inhibitor, single point]",–
CN(C(=O)c1ccc(OC2CCN(CCc3ccccc3)CC2)cc1)C1CCOC1 (stereo not given),"inconclusive: 10 µM [inhibitor, partial curve, poor fit]",–
COc1ccc(CC(C)N2CCN(Cc3ccccc3)CC2)cc1OC (stereo not given),"inconclusive: 3.98 µM [inhibitor, single point]",–
CC(=O)c1ccccc1NC(=O)c1ccc2c(c1)NC(=O)C(C)S2 (stereo not given),"inconclusive: 2 µM [activator, partial curve, poor fit]",–
C/C(=N\Nc1ccc(C(=O)O)cc1)c1ccc2c(c1)Nc1ccccc1S2,"inconclusive: 20 µM [inhibitor, single point]",–
COc1cc(/C=N/N=C2/NC(=O)C(Cc3ccccc3)S2)ccc1O (stereo not given),"inconclusive: 35.5 µM [inhibitor, single point]",–
Cc1ccc2c(c1)C(c1ccc(F)cc1)N(C(=O)COc1ccc(Cl)cc1Cl)CC(=O)N2 (stereo not given),"inconclusive: 35.5 µM [inhibitor, single point]",–
O=C(CSc1c2c(nc3ccc(Cl)cc13)CCCC2)N1CCN(c2cccc(Cl)c2)CC1,"inconclusive: 35.5 µM [inhibitor, single point]",–
CC1CCN(C(=O)CN(Cc2ccc(Cl)cc2)S(C)(=O)=O)CC1,"inconclusive: 25.1 µM [inhibitor, single point]",–
CCOC(=O)NN1C(=O)c2ccccc2NC12CCCC2,–,inactive: -22.1% [at 46.1 µM]

# An excerpt from further up, for reference:
SMILES,Potency,"activity change, negative = inhibition"
Cc1ccc(N(C(=O)c2snc(C(N)=O)c2N)C(C(=O)NC2CCCC2)c2ccco2)cc1 (stereo not given),"inconclusive: 1.78 µM [inhibitor, partial curve, poor fit]",–
CCOc1ccc(NC(=O)CCS(=O)(=O)c2ccc3c(c2)CCCN3C(C)=O)cc1,"inconclusive: 2.82 µM [activator, single point]",–
